Test results as given in paper doi:10.1101/2025.07.24.666000.

System: thrombin (human, from plasma, Sigma T6884) (Homo sapiens)
Experiment: pull-down
Settings: release strand added (strand displacement), combined value for TBA and HD22

Sequence | binding signal (% of captured thrombin released)
GGTTGGTGTGGTTGGTTAGTGATGAGCGGGATTAGAGCCTTATGAGCCGTC / CCGCTCATCACTAACCAACCACACCAACC [Switchable TBA aptamer + release strand] | 71.7
AGTCCGTGGTAGGGCAGGTTGGGGTGACTTATTCGCATTCTTAGATTAGAGCCTTATGAGCCGTC / TAAGAATGCGAATAAGTCACCCCAACCTGCCCTACCACGGACT [Switchable HD22 aptamer + release strand] | 71.7

Construct, isoform or probe ends are uncertain for at least one entry. Whether high values mean tight binding is not given here for every scale.
